Some of these results come from one statement about several compounds together.
These compounds were tested against DNA-PK (Homo sapiens, UniProt P78527) (assay: DNA-PK inhibition assay (radiometric 33P-ATP kinase assay)). Details: 100 μM ATP; competitive tight-binding fit.
Format: biochemical

Sequences of proteins named here, by UniProt entry; tags and fusion partners are left off.
UniProt P78527, whole entry: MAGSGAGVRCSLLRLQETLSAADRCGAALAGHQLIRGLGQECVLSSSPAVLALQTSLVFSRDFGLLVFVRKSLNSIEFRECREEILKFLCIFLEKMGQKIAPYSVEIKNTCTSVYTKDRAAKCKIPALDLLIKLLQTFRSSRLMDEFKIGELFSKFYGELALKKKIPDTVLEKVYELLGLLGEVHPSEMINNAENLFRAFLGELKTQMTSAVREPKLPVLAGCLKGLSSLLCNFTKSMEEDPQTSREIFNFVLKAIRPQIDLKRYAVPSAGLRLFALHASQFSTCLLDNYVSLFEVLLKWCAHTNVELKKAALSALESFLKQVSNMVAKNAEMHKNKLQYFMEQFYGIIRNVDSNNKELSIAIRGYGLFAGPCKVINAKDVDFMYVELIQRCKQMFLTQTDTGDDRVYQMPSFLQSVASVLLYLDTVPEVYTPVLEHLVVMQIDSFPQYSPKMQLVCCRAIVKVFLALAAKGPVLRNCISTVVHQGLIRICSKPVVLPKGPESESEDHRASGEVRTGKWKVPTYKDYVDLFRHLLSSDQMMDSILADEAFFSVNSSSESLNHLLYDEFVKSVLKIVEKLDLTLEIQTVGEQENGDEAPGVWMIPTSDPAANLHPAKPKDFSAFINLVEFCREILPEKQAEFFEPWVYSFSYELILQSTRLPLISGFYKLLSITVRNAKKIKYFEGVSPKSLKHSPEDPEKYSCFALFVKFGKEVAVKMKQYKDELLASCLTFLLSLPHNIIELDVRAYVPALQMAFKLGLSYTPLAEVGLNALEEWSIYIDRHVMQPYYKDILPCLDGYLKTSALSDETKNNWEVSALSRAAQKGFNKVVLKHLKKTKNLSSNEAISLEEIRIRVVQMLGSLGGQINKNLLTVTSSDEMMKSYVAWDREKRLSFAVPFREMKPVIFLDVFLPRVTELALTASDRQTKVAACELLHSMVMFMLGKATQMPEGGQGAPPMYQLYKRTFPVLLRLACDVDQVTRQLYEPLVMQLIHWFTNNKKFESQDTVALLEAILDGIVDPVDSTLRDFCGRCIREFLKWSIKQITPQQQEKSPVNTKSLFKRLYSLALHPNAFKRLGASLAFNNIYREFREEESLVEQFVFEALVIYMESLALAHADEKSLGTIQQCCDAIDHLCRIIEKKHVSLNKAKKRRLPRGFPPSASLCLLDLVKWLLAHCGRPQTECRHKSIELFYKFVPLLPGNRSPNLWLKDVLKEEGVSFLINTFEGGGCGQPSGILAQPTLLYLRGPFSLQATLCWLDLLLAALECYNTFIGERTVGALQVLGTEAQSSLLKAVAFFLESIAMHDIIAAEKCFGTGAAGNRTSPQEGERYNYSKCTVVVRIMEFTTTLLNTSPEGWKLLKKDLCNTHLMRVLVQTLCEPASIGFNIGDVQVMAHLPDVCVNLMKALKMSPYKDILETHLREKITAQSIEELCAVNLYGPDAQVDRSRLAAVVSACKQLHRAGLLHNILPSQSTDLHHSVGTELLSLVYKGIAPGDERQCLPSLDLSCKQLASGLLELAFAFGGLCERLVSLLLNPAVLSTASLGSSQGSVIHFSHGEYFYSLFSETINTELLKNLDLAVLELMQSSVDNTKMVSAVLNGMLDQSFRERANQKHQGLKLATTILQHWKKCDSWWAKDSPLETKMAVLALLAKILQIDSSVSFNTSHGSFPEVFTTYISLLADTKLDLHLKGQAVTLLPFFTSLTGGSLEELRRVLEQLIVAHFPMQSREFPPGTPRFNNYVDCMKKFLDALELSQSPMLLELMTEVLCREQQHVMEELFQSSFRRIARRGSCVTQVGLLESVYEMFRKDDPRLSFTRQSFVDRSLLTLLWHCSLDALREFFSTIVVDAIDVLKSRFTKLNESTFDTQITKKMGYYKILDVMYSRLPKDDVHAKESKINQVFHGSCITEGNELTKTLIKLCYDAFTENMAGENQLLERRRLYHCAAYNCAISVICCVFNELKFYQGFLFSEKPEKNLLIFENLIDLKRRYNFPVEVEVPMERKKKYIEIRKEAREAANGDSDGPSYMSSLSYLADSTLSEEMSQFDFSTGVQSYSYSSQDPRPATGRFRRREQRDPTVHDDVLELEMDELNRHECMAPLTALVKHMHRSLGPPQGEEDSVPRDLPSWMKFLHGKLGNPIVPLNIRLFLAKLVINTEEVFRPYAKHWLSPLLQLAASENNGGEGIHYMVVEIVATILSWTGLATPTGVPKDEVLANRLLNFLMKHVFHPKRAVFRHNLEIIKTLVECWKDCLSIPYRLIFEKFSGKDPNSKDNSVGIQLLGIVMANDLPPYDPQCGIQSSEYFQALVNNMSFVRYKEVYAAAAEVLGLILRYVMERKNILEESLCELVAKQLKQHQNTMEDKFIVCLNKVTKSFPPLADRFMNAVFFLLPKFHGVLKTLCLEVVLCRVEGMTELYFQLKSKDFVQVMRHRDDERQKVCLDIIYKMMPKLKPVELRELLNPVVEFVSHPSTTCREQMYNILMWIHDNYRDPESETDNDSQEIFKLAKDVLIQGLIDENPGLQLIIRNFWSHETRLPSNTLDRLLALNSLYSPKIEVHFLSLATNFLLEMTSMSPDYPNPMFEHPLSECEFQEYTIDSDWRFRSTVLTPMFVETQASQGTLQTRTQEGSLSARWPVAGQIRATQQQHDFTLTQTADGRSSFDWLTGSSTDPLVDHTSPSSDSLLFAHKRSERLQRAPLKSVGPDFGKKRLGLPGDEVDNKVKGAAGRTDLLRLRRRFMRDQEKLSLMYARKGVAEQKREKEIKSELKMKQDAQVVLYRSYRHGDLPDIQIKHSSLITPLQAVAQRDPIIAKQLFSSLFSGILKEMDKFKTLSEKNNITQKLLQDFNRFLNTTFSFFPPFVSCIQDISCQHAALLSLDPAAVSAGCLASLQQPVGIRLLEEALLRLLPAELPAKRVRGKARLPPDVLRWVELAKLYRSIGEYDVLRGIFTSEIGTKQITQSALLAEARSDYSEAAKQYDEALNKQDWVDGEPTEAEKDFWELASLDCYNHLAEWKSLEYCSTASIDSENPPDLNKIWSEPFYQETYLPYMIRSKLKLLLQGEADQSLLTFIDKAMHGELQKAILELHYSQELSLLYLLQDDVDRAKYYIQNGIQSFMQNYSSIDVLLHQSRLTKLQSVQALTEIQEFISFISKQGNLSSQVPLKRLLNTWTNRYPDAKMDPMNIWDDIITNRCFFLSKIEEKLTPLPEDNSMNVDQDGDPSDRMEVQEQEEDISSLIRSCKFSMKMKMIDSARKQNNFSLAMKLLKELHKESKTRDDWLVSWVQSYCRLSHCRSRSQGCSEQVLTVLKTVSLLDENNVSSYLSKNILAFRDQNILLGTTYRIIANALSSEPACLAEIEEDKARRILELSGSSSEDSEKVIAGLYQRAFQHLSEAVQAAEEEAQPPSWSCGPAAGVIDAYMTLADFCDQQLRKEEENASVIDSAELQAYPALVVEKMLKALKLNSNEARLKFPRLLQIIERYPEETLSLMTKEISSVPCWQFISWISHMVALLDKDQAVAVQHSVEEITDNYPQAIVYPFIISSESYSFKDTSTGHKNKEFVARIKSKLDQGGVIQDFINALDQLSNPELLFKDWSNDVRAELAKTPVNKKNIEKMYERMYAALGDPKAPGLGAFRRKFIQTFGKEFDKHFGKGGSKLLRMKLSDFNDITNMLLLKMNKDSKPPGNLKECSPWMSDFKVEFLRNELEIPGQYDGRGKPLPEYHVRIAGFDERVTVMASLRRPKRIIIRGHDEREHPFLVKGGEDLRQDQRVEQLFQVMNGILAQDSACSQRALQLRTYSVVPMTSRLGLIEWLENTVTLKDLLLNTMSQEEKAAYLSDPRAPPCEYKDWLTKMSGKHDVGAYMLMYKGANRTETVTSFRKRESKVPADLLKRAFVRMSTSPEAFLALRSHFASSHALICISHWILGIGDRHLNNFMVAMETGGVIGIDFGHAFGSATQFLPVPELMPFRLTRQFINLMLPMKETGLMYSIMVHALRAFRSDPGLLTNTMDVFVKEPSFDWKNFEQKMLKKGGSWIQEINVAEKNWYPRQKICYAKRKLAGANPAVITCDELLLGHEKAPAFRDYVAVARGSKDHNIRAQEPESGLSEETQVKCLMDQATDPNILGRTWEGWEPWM

Ki, ≤ 300 nM:
CNC(=O)c1ccc([C@H](C)CNc2cc(-c3cnc4c(cnn4CCO)c3)ncn2)c2ncccc12 [Compound 512]
COc1ccccc1CCNc1ncnc(-c2ccc3ncccc3c2)n1 [Compound 4]
CNC(=O)c1ccnc2c([C@H](C)CNc3cc(-c4cnc5c(c4)CCCO5)ncn3)cccc12 [Compound 793]
Cc1ccc(-c2cc(NC[C@@H](C)c3cccc4c3OCCN4)ncn2)cn1 [Compound 513]
CCc1ncc(-c2cc(NC[C@@H](C)c3cccc4c(C(=O)NC)c(F)cnc34)ncn2)cn1 [Compound 836]
CNC(=O)c1c(F)cnc2c([C@H](C)CNc3cc(-c4cnc(CC5CCN(C)CC5)nc4)ncn3)cccc12 [Compound 1002]
CNC(=O)c1c(F)cnc2c([C@H](C)CNc3cc(-c4ccc(CC5CCN(CC(F)(F)F)CC5)nc4)ncn3)cccc12 [Compound 1021]
C[C@H](CNc1cc(-c2ccc(N)nc2)ncn1)c1ccnc2c1OCCO2 [Compound 459]
COc1ncc(C(C)CNc2cc(-c3ccc(C)nc3)ncn2)c(OC)n1 (stereo not shown) [Compound 439]
CNC(=O)c1ccnc2c([C@H](C)CNc3cc(-c4cncc(S(C)(=O)=O)c4)ncn3)cccc12 [Compound 877]
CNC(=O)c1ccnc2c([C@H](C)CNc3cc(-c4cncc(N5CCOCC5)c4)ncn3)cccc12 [Compound 912]
Cc1ccc(-c2cc(NCCc3cccc4cccnc34)ncn2)cn1 [Compound 169]
COc1ccc(C(N)=O)cc1C(C)CNc1cc(-c2ccc(C)nc2)ncn1 (stereo not shown) [Compound 281]
COc1cc(C(=O)NOC2CCCCO2)ccc1C(C)CNc1cc(-c2ccc(C)nc2)ncn1 (stereo not shown) [Compound 226]
CC(=O)N1CCN(c2ccc(-c3cc(NCCc4ccccc4Oc4ccccc4)ncn3)cn2)CC1 [Compound 90]
Cc1ccc(-c2cc(NCC(C)c3cccc4ocnc34)ncn2)cn1 (stereo not shown) [Compound 329]
CNC(=O)c1ccnc2c([C@H](C)CNc3cc(-c4ccc(OCCN(C)C)cc4)ncn3)cccc12 [Compound 744]
CC(CNc1cc(-c2cnc3c(cnn3CCO)c2)ncn1)c1csc2cccnc12 (stereo not shown) [Compound 399]
COc1c(C#N)cccc1C(C)CNc1cc(-c2ccc(C)nc2)ncn1 (stereo not shown) [Compound 397]
CNC(=O)c1ccnc2c([C@H](C)CNc3cc(-c4cnc(OC(C)(C)C)nc4)ncn3)cccc12 [Compound 996]
CNC(=O)c1ccnc2c([C@H](C)CNc3cc(-c4ccc(NC5(C)COC5)nc4)ncn3)cccc12 [Compound 629]
CNC(=O)c1ccnc2c([C@H](C)CNc3cc(-c4cnc(CC5CCN(C)CC5)nc4)ncn3)ccc(F)c12 [Compound 1003]
CC(=O)c1ccc(-c2cc(NC[C@@H](C)c3ccnc4c3OCCO4)ncn2)cc1 [Compound 456]
COc1ccccc1[C@H](C)CNc1cc(-c2ccnc(NCCSC)c2)ncn1 [Compound 210]
CNC(=O)c1ccnc2c([C@H](C)CNc3cc(-c4cnc(COC)nc4)ncn3)cccc12 [Compound 886]
CNC(=O)c1ccnc2c([C@H](C)CNc3cc(-c4ccc(C(=O)O)o4)ncn3)cccc12 [Compound 796]
CNC(=O)c1ccc(C(C)CNc2cc(-c3cnc4c(cnn4CCO)c3)ncn2)c(OC)c1 (stereo not shown) [Compound 153]
CNC(=O)c1ccc([C@H](C)CNc2cc(-c3ccc(N4CC=CCC4)nc3)ncn2)c(OC)c1 [Compound 366]
CNC(=O)c1ccnc2c([C@H](C)CNc3cc(-c4ccc(NC5COC5)nc4)ncn3)cccc12 [Compound 643]
COc1sccc1C(C)CNc1cc(-c2ccc(N3CCN(C)CC3)nc2)ncn1 (stereo not shown) [Compound 265]
CNC(=O)c1ccnc2c([C@H](C)CNc3cc(-c4ccnc(C5CC5)c4)ncn3)ccc(F)c12 [Compound 914]
COc1ccc(C(=O)N(C)C)cc1C(C)CNc1cc(-c2ccc(C)nc2)ncn1 (stereo not shown) [Compound 282]
CNC(=O)c1ccnc2c([C@H](C)CNc3cc(-c4ccc(NCCCO)nc4)ncn3)cccc12 [Compound 715]
CCOc1ncc(-c2cc(NC[C@@H](C)c3cccc4c(C(=O)NC)ncnc34)ncn2)cn1 [Compound 1011]
COc1cc(C(N)=O)sc1C(C)CNc1cc(-c2ccc(C)nc2)ncn1 (stereo not shown) [Compound 302]
COc1ccc(Br)cc1C(C)CNc1cc(-c2ccc(C)nc2)ncn1 (stereo not shown) [Compound 245]
CC(CNc1cc(-c2ccc(N3CCN(C)CC3)nc2)ncn1)c1cccc2[nH]cnc12 (stereo not shown) [Compound 230]
CNC(=O)c1ccc([C@H](C)CNc2cc(-c3ccc4[nH]c(=O)[nH]c4c3)ncn2)c(OC)c1 [Compound 315]
CNC(=O)c1ccnc2c([C@H](C)CNc3cc(-c4cncc(C)c4)ncn3)ccc(F)c12 [Compound 651]
CNC(=O)c1ccnc2c([C@H](C)CNc3cc(-c4ccc(NC5CC5)nc4)ncn3)cccc12 [Compound 628]
CCOc1ncccc1CCNc1cc(-c2ccc(C)nc2)ncn1 [Compound 58]
CNC(=O)c1ccnc2c([C@H](C)CNc3cc(-c4cnc5c(c4)OCCO5)ncn3)ccc(F)c12 [Compound 936]
CC(CNc1cc(-c2cnc3c(cnn3CC3CC3)c2)ncn1)c1ccccc1OC1COC1 (stereo not shown) [Compound 217]
CNC(=O)CNc1ncc(-c2cc(NC[C@@H](C)c3cccc4c(C(=O)NC)c(F)cnc34)ncn2)cn1 [Compound 1075]
COc1ccccc1[C@H](C)CNc1cc(-c2ccnc(N[C@@H](C)CO)c2)ncn1 (single isomer, unassigned) [Compound 213]
CNC(=O)c1ccnc2c([C@H](C)CNc3cc(-c4ccnc(NC5CC5)c4)ncn3)cccc12 [Compound 894]
CNC(=O)c1ccnc2c([C@H](C)CNc3cc(-c4cnc(C5CCOCC5)nc4)ncn3)cccc12 [Compound 831]
CNC(=O)c1ccnc2c([C@H](C)CNc3cc(-c4ccc(C)nc4)ncn3)c(F)ccc12 [Compound 640]
CNC(=O)c1ccnc2c([C@H](C)CNc3cc(-c4cc(C)nc(C)c4)ncn3)cccc12 [Compound 820]
CNC(=O)c1ccnc2c([C@H](C)CNc3cc(-c4ccc(C#N)cc4)ncn3)cccc12 [Compound 683]
CNC(=O)c1ccnc2c([C@H](C)CNc3cc(-c4ccc(NCc5cocn5)nc4)ncn3)cccc12 [Compound 712]
CN1CCN(c2ccc(-c3cc(NCCc4cccc5c4OCC5(C)C)ncn3)cn2)CC1 [Compound 68, N-(2-(3,3-dimethyl-2,3-dihydrobenzofuran-7-yl)ethyl)-6-(6-(4-methylpiperazin-1-yl)pyridin-3-yl)pyrimidin-4-amine]
CNC(=O)c1ccnc2c([C@H](C)CNc3cc(-c4cc(C)[nH]n4)ncn3)cccc12 [Compound 761]
COc1ccc(C)cc1CCNc1cc(-c2ccc(N3CCN(C)CC3)nc2)ncn1 [Compound 78]
Cc1ccc(-c2cc(NC[C@@H](C)c3cnn4cccnc34)ncn2)cn1 [Compound 570]
Cc1ccc(-c2cc(NCC(C)c3cccc4c3OC(C)(C)C4)ncn2)cn1 (stereo not shown) [Compound 85]
CNC(=O)c1ncnc2c([C@H](C)CNc3cc(-c4ccc(C#N)cc4)ncn3)cccc12 [Compound 1010]
CNC(=O)c1ccnc2c([C@H](C)CNc3cc(-c4ccc(NCCN5CCNC5=O)nc4)ncn3)cccc12 [Compound 719]
CNC(=O)c1ccc(C(C)CNc2cc(-c3ccc(OCCS(C)(=O)=O)nc3)ncn2)c(OC)c1 (stereo not shown) [Compound 325]
COc1cccc(C(C)CNc2cc(-c3ccc(C)nc3)ncn2)c1O (stereo not shown) [Compound 450]
CNC(=O)c1ccc(C(C)CNc2cc(-c3cnc(C)nc3)ncn2)c(OC)c1 (stereo not shown) [Compound 193]
COc1ccccc1[C@H](C)CNc1cc(-c2ccc(N3CCN(C)CC3)nc2)ncn1 [Compound 32, (S)—N-(2-(2-Methoxyphenyl)propyl)-6-(6-(4-methylpiperazin-1-yl)pyridin-3-yl)pyrimidin-4-amine]
COCc1ccc(-c2cc(NC[C@@H](C)c3ccnc4c3OCCO4)ncn2)cc1 [Compound 458]
COc1ncc(-c2cc(NC[C@@H](C)c3ccnc4c3OCC4)ncn2)cc1N [Compound 589]
CNC(=O)c1ccnc2c([C@H](C)CNc3cc(-c4ccc(C5CC5)nc4)ncn3)cccc12 [Compound 847]
Cc1ccc(-c2cc(NC[C@@H](C)c3cccc4c(C(N)=O)ccnc34)ncn2)cn1 [Compound 494]
COC(=O)c1ccnc2c([C@H](C)CNc3cc(-c4cnc(C)nc4)ncn3)cccc12 [Compound 663]
CNC(=O)c1ccnc2c([C@H](C)CNc3cc(-c4cnc(N(C)C)nc4)ncn3)cccc12 [Compound 810]
Cc1cnc(OC2CCCC2)c(C(C)CNc2cc(-c3ccc(C)nc3)ncn2)c1 (stereo not shown) [Compound 471]
CCOc1cc(-c2cc(NC[C@@H](C)c3cccc4c(C(=O)NC)ccnc34)ncn2)ccn1 [Compound 962]
CCNc1ncc(-c2cc(NC[C@@H](C)c3cccc4c(C(=O)NC)c(F)cnc34)ncn2)cn1 [Compound 978]
CNC(=O)c1c(F)cnc2c([C@H](C)CNc3cc(-c4ccc(C#N)nc4)ncn3)cccc12 [Compound 901]
CNC(=O)c1ccnc2c([C@H](C)CNc3cc(-c4cnc(OC5CCCN(C(=O)OC(C)(C)C)C5)nc4)ncn3)cccc12 (stereo partly shown) [Compound 747]
CNC(=O)c1ccnc2c([C@H](C)CNc3cc(-c4cnc(C(C)C)nc4)ncn3)cccc12 [Compound 849]
CNC(=O)c1c(F)cnc2c([C@H](C)CNc3cc(-c4ccc(C)nc4)ncn3)cccc12 [Compound 620]
CNC(=O)c1c(F)cnc2c([C@H](C)CNc3cc(-c4cnc(NCC(F)(F)F)nc4)ncn3)cccc12 [Compound 1033]

Source: patent US10442791B2, “DNA-PK inhibitors” (Vertex Pharmaceuticals Incorporated, priority 2012, dated 2019)
